The experiment has as its target T1, EGFP-tagged RepoMan-WT (UniProt Q69YH5).
T1 sequence: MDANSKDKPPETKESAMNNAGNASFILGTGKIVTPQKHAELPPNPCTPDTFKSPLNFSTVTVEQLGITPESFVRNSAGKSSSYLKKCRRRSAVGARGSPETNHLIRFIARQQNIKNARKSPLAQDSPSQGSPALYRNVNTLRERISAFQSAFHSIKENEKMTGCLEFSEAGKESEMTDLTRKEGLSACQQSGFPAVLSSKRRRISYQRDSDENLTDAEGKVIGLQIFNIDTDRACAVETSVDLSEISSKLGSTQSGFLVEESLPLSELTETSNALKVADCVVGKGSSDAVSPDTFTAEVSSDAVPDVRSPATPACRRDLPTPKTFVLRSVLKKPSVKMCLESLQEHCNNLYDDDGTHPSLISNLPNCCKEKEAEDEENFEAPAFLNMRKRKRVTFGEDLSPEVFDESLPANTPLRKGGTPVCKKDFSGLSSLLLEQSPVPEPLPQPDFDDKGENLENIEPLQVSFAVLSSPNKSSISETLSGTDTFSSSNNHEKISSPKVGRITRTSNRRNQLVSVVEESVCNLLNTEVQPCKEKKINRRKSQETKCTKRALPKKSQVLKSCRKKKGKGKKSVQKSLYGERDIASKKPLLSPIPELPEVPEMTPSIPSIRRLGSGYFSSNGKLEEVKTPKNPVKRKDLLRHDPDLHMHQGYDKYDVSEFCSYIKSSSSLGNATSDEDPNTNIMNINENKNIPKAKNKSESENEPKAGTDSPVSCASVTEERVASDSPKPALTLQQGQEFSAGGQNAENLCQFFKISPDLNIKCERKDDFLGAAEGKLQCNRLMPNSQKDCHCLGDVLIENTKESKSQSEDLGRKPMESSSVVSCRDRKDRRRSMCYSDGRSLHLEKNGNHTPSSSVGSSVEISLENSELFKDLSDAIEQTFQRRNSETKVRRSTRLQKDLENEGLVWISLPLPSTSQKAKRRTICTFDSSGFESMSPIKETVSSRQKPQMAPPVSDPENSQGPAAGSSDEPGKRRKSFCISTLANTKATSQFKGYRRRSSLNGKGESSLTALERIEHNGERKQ
The experiment can be described thus: co-IP; EGFP traps of EGFP-RepoMan fusions from lysates of transfected HEK293T cells (non-synchronized in Fig. 3f,j; Nocodazole-arrested in Fig. 2d); immunoblot. Background: Immunoblotting shows a protein as a band on a membrane.

Results are given in words; binding and its absence hold for the method and conditions named. In cells and extracts the contact can be indirect. A result given as binding can be weak or reduced; the word gives no strength. Where a sequence is shown, tags or fusion partners need not be part of it.

For “Cyclin B (endogenous) (human (endogenous in HEK293T))”, the binding result is “binds”.

For the origin of these results see paper PMC4703885.
